Laboratory results as given in patent US20030166891A1.
Results are given in words; binding and its absence hold for the method and conditions named. Some results given as binding are weak or reduced against the parent protein; the word gives no strength.

Biological target: Purified polypeptide encoded by the 1.6 kb fragment of the ECB Bt toxin receptor (fragment set forth in SEQ ID NO: 7), expressed in E. coli from pET-28a-c(+) (Ostrinia nubilalis)
Test: ligand blot of the purified E. coli-expressed polypeptide

For “Cry1A(b) toxin (from UniProt P0A370 29-607) (ligand)”, the binding was “binds”.
